From publication PMC9727023
No constants are given. Whether binding was seen depends on the method and setting. For some assays here: In cells and extracts the contact can be indirect. Some entries that bind do so weakly or less than the wild type.

The chains behind the UniProt entries cited, without tags or fusion partners. Residues count along the entry.
UniProt Q8TD26: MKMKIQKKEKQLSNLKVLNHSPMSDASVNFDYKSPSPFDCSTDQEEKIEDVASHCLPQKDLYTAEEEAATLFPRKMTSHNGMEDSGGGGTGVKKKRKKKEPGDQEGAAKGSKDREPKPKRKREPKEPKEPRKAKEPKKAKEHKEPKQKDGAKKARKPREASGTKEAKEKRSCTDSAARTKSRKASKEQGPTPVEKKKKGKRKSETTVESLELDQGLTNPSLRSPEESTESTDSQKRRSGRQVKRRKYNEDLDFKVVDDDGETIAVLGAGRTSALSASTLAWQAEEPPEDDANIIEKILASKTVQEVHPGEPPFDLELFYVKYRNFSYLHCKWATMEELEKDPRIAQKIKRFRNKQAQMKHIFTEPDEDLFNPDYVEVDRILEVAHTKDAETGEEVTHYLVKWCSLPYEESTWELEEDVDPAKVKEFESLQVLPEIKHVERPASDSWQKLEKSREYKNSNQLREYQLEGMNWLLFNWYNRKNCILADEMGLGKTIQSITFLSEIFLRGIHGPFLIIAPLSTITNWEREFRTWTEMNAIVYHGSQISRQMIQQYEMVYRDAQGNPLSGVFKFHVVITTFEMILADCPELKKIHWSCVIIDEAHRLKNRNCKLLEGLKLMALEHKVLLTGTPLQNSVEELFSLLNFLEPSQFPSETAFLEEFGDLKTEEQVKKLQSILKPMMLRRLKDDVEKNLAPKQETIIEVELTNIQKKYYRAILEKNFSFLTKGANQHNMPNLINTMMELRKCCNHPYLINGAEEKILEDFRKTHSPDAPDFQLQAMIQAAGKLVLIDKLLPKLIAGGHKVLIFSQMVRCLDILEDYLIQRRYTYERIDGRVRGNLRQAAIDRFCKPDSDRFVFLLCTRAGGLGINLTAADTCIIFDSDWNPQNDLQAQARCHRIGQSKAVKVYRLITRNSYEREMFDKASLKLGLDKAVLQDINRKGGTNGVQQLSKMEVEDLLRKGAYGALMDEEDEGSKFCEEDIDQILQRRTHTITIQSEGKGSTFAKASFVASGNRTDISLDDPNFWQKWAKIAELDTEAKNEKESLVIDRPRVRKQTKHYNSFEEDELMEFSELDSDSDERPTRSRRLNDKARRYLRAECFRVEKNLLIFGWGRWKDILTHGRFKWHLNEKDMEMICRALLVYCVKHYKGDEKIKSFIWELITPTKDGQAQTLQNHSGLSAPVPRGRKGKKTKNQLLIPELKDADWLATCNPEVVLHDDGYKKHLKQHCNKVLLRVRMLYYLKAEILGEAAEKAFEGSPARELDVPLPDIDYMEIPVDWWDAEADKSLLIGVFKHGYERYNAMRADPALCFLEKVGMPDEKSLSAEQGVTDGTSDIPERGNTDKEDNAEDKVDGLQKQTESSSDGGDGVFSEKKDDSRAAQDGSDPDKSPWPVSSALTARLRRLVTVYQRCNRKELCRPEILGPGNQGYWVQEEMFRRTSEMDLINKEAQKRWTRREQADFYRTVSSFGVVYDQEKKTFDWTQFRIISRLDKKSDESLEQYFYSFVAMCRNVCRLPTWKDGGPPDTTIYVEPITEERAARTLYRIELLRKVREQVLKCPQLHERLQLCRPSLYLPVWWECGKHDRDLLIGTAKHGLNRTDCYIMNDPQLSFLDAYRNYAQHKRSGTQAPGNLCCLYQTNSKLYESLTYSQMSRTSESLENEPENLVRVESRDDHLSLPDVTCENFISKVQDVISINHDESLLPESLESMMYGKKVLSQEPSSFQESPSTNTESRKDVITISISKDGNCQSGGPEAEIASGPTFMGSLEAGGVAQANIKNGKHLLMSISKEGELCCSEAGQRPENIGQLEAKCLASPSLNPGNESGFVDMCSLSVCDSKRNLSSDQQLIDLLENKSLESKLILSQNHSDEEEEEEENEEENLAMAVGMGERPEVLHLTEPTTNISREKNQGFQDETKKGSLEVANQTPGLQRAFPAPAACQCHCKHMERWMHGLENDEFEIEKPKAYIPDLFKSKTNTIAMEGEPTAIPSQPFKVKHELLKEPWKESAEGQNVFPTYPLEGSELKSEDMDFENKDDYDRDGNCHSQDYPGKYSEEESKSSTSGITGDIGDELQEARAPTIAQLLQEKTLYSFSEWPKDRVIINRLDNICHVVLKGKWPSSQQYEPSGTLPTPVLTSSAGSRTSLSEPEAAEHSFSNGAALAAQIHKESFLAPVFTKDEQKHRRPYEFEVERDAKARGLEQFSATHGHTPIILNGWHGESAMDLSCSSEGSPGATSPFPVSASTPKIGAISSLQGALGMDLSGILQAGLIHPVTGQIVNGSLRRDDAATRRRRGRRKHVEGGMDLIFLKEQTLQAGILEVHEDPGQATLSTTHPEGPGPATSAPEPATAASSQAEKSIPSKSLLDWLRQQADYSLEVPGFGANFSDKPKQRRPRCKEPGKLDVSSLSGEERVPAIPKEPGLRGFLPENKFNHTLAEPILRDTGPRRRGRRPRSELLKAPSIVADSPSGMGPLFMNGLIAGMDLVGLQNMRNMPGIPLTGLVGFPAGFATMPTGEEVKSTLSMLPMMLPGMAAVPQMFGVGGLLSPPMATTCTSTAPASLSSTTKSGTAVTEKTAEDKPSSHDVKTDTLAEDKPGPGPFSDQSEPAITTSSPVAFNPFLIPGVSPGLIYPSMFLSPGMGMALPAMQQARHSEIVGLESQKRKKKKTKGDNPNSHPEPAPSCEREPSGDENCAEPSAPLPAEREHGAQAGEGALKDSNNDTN
UniProt Q9NQB0: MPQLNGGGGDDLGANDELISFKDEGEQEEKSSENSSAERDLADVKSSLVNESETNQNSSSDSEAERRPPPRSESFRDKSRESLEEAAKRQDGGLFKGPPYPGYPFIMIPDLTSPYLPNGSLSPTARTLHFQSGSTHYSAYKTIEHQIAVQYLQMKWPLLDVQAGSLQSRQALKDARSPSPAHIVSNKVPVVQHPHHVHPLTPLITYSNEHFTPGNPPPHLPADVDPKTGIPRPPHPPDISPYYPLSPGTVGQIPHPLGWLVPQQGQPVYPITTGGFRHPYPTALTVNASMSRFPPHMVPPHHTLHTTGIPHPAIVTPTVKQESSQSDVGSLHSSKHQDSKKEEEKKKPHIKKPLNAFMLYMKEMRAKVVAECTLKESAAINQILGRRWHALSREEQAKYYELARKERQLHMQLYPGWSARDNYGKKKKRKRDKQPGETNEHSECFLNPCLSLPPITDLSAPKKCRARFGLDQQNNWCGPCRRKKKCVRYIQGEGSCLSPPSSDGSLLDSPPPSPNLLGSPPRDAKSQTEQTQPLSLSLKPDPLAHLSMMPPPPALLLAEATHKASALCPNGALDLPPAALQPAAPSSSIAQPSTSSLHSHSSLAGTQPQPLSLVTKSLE
UniProt P25705, residues 44-553: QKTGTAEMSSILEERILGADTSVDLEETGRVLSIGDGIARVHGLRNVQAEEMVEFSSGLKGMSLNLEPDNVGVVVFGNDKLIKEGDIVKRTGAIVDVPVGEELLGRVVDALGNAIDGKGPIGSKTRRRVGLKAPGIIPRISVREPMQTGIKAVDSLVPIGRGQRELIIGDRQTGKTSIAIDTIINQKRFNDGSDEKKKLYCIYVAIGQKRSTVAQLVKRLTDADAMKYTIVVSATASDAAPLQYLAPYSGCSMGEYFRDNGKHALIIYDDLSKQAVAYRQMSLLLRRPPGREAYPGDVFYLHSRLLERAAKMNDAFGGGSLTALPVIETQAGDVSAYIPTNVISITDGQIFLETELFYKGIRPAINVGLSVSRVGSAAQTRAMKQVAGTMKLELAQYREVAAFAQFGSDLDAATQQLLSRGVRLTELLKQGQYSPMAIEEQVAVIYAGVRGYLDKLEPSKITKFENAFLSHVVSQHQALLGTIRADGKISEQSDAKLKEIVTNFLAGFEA
UniProt P49841: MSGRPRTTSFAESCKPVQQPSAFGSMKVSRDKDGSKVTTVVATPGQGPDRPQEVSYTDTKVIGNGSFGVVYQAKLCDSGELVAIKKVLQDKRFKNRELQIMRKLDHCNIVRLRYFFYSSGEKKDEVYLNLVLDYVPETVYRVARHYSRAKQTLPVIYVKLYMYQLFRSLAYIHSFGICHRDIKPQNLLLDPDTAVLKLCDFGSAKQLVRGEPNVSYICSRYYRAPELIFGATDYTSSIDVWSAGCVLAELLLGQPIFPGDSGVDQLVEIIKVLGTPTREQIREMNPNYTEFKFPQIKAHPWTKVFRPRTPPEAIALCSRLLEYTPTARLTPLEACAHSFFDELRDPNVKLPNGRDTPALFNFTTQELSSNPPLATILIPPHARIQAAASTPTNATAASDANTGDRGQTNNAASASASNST
UniProt P35222: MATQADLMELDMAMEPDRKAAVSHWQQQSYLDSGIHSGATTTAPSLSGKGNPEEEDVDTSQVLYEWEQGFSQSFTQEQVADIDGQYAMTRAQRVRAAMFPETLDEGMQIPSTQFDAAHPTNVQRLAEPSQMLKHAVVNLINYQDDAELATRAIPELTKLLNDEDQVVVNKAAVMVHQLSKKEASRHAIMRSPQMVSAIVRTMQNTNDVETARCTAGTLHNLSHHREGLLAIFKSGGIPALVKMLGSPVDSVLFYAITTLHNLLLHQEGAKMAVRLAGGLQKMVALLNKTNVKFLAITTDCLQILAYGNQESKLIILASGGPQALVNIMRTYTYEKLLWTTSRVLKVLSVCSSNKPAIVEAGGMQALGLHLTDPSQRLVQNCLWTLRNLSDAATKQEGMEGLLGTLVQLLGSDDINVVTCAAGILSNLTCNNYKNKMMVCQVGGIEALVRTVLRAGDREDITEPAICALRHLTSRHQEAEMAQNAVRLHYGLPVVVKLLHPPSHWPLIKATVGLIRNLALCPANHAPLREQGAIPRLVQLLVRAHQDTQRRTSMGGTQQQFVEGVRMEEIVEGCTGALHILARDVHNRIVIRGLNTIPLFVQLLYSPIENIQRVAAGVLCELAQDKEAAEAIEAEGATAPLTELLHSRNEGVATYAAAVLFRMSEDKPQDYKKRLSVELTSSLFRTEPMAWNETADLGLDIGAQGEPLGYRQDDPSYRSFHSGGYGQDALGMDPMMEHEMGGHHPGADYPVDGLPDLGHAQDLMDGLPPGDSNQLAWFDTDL
UniProt P51970: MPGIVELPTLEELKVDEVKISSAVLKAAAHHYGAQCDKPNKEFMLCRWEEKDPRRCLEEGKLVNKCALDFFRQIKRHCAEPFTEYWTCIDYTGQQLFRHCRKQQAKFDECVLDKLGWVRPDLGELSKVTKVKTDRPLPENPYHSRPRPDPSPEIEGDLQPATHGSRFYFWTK
UniProt Q969H0: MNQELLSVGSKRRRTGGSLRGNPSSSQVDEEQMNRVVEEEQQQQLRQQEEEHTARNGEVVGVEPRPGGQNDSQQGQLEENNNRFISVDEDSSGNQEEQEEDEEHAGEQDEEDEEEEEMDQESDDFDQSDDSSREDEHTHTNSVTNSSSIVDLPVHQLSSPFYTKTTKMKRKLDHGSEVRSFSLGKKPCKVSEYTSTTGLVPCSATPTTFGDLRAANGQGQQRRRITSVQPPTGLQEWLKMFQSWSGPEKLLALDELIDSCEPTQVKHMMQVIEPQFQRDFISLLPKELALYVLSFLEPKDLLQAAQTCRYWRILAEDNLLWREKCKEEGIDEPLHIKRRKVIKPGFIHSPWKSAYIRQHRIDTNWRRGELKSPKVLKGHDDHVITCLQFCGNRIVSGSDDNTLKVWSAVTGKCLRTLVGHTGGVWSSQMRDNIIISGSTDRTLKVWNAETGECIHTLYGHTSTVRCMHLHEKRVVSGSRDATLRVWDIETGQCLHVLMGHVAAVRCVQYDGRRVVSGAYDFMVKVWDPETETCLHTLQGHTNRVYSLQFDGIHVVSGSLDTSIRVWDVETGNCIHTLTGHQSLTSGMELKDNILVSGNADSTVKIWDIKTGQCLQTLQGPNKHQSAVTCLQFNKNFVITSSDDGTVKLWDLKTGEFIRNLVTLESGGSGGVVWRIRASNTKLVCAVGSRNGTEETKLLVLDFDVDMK

What was measured:
[1] = biological target: CHD6 (domain mapping assay) (human) (UniProt Q8TD26); experiment: domain mapping assay; CHD6 constructs tested for interaction with TCF4; details only in Supplementary Fig. S7d-g
TMEM65 [2] = biological target: T1, TMEM65 (UniProt Q6PI78); experiment: SEC; gel filtration, fractions immunoblotted for TMEM65 and mitochondrial proteins; details only in Supplementary Fig. S5j
T1 sequence: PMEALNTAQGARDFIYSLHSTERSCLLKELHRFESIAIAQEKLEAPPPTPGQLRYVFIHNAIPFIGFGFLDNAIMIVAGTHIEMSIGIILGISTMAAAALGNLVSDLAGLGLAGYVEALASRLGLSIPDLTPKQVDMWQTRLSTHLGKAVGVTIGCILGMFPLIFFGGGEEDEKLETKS

[3] = biological target: CHD6, exogenous (Fig. 4f) (human) (UniProt Q8TD26); experiment: co-IP; 293T cells transfected with the indicated plasmids; immunoprecipitated with an anti-Flag antibody, immunoblot
[4] = biological target: CHD6, transfected (gel filtration, Fig. 7b) (human) (UniProt Q8TD26); experiment: SEC; lysate of CHD6-transfected HEK293T cells on Superose 6, eluted with PBS pH 7.4 at 0.4 mL/min, 40 fractions immunoblotted; co-elution at fractions 29-32 (~2000 Kd)
[5] = biological target: Chromodomain helicase DNA binding protein 6 (CHD6), endogenous (human (endogenous in HCT116)) (UniProt Q8TD26); experiment: co-IP; endogenous proteins; HCT116 lysates in IP lysis buffer (50 mM Tris-HCl pH 7.5, 150 mM NaCl, 0.1% Triton X-100, 0.1% NP-40, 1 mM EDTA) incubated with CHD6 antibody or IgG at 4 °C overnight, protein A/G agarose, immunoblot
Myc-tagged CHD6 (human) = Myc-tagged CHD6 (human) (UniProt Q8TD26); experiment: co-IP; 293T cells transfected with Myc-tagged CHD6 and Flag-tagged FBXW7; lysates pulled down with Myc-tagged magnet beads, immunoblot
TMEM65 [6] = biological target: T1, TMEM65; experiment: co-IP; TMEM65 and PPOX; cells, bait and antibody shown only in Supplementary Fig. S5i

binding (TMEM65 [2])	Molecule	binding [5]	further results
	TCF4 (domain mapping assay) (from UniProt Q9NQB0 1-619)		binding [1]: binds
binds	ATP5a (from UniProt P25705 44-553)		
	GSK3β, exogenous (Fig. 4f) (from UniProt P49841 1-420) (enzyme)		binding [3]: binds
	β-catenin in HEK293T lysate (from UniProt P35222 1-781)		binding [4]: binds
binds	ATP5b (from UniProt P06576 48-529)		
	TCF4, endogenous (HCT116) (from UniProt Q9NQB0 1-619)	binds	
binds	NDUFA8 (from UniProt P51970 1-172)		
	TCF4 in HEK293T lysate (from UniProt Q9NQB0 1-619)		binding [4]: binds
	β-catenin, endogenous (HCT116) (from UniProt P35222 1-781)	binds	
	FBXW7α, endogenous (from UniProt Q969H0 1-707)	binds	
	Glycogen synthase kinase-3β (GSK3β), endogenous (from UniProt P49841 1-420) (enzyme)	binds	
	Flag-tagged FBXW7 (from UniProt Q969H0 1-707)		binding (Myc-tagged CHD6 (human)): binds
binds	Protoporphyrinogen oxidase (PPOX) (enzyme, UniProt P50336 1-477) MGRTVVVLGGGISGLAASYHLSRAPCPPKVVLVESSERLGGWIRSVRGPNGAIFELGPRGIRPAGALGARTLLLVSELGLDSEVLPVRGDHPAAQNRFLYVGGALHALPTGLRGLLRPSPPFSKPLFWAGLRELTKPRGKEPDETVHSFAQRRLGPEVASLAMDSLCRGVFAGNSRELSIRSCFPSLFQAEQTHRSILLGLLLGAGRTPQPDSALIRQALAERWSQWSLRGGLEMLPQALETHLTSRGVSVLRGQPVCGLSLQAEGRWKVSLRDSSLEADHVISAIPASVLSELLPAEAAPLARALSAITAVSVAVVNLQYQGAHLPVQGFGHLVPSSEDPGVLGIVYDSVAFPEQDGSPPGLRVTVMLGGSWLQTLEASGCVLSQELFQQRAQEAAATQLGLKEMPSHCLVHLHKNCIPQYTLGHWQKLESARQFLTAHRLPLTLAGASYEGVAVNDCIESGRQAAVSVLGTEPNS		binding (TMEM65 [6]): binds
